Earlier results, collected in patent US20140037792A1, “Isolated microorganism strains Lactobacillus plantarum MCC1 DSM 23881 and Lactobacillus gasseri MCC2 DSM 23882 and their use” (Bio-Competence Centre of Healthy Dairy Products, priority 2011, published 2014).
For at least one compound, name, drawing or mass did not settle the structure.

What was measured:
[1] = tested on: L. plantarum; details: FEEDAP Panel EFSA 2008; cited from earlier work
[2] = tested on: Obligately homofermentative lactobacilli (OHOL); details: FEEDAP Panel EFSA 2008; cited from earlier work
[3] = tested on: Lactobacillus spp; details: European Commission 2002; cited from earlier work

## CCC[C@@H]1C[C@@H](C(=O)N[C@@H]([C@H]2O[C@H](SC)[C@H](O)[C@@H](O)[C@H]2O)[C@H](C)Cl)N(C)C1 [Clindamycin]
[1]
  MIC breakpoint for resistance, L. plantarum: 1 mg/L
[2]
  MIC breakpoint for resistance, OHOL: 1 mg/L

## CN(C)[C@@H]1C(O)=C(C(N)=O)C(=O)[C@@]2(O)C(O)=C3C(=O)c4c(O)cccc4[C@@](C)(O)[C@H]3C[C@@H]12 [Tetracycline]
[3]
  MIC breakpoint for resistance, Lactobacillus spp: 16 mg/L
[1]
  MIC breakpoint for resistance, L. plantarum: 32 mg/L
[2]
  MIC breakpoint for resistance, OHOL: 4 mg/L
